The supplement of paper PMC9015667
Counter-ions that a name gives are not always drawn. This is one part of the list. Many values rest on one well or one pass, so single values are uncertain.

Assays:
Test in all cases: reduction in cell viability relative to untreated/vehicle; higher = more growth inhibition
Conditions in all cases: 200 nM; 72 h
M229P = test system: M229P (parental melanoma line)
M229R = test system: M229R (matched melanoma line resistant to BRAF inhibitors)
M238P = test system: M238P (parental melanoma line)
M238R = test system: M238R (matched melanoma line resistant to BRAF inhibitors)
M249P = test system: M249P (parental melanoma line)
M249R = test system: M249R (matched melanoma line resistant to BRAF inhibitors)
UACC62P = test system: UACC62P (parental melanoma line)
UACC62R = test system: UACC62R (matched melanoma line resistant to BRAF inhibitors)

SMILES	reduction in cell viability (M229P) [%]	reduction in cell viability (M229R) [%]	reduction in cell viability (M238P) [%]	reduction in cell viability (M238R) [%]	reduction in cell viability (M249P) [%]	reduction in cell viability (M249R) [%]	reduction in cell viability (UACC62P) [%]	reduction in cell viability (UACC62R) [%]
CC(C)(C(=O)NCC(F)(F)C(F)(F)F)C(=O)N[C@@H]1C(=O)Nc2ccccc2-c2ccccc21	< 0	< 0	< 0	< 0	< 0	< 0	1.45	< 0
Oc1ccc(/C=C/c2cc(O)cc(O)c2)cc1 [Resveratrol]	< 0	< 0	< 0	< 0	< 0	< 0	< 0	< 0
O=C1CCC(N2C(=O)c3ccccc3C2=O)C(=O)N1 (stereo not drawn) [Thalidomide]	< 0	< 0	< 0	< 0	< 0	< 0	< 0	< 0
Cc1ncc([N+](=O)[O-])n1CCO [Metronidazole]	< 0	< 0	< 0	< 0	< 0	< 0	< 0	< 0
Cc1ccc(C(N)=O)cc1Nc1nccc(-c2cn(C(C)C)c3cnccc23)n1	< 0	< 0	< 0	< 0	< 0	< 0	< 0	< 0
CO[C@H]1C(=O)[C@]2(C)[C@@H](OC)C[C@H]3OC[C@@]3(OC(C)=O)[C@H]2[C@H](OC(=O)c2ccccc2)[C@]2(O)C[C@H](OC(=O)[C@H](O)[C@@H](NC(=O)OC(C)(C)C)c3ccccc3)C(C)=C1C2(C)C [Cabazitaxel]	26.5	41.3	75.7	72.9	27.4	39	26.5	75.1
CC(C)C[C@H](NC(=O)CNC(=O)c1cc(Cl)ccc1Cl)B1OC(=O)C(CC(=O)O)(CC(=O)O)O1 [Ixazomib citrate]	79.1	81.1	77.4	83.1	75.9	79.5	78.5	77.2
Cc1cnc(Nc2ccc(N3CCN(C)CC3)cc2)nc1Nc1cccc(S(=O)(=O)NC(C)(C)C)c1	< 0	< 0	17.1	< 0	< 0	4.95	15.8	11.1
NC1(Cc2ccc(Cl)cc2)CCN(c2ncnc3[nH]ccc23)CC1	< 0	< 0	< 0	< 0	< 0	< 0	< 0	< 0
O=C(N[C@H](CO)[C@H](O)c1ccc([N+](=O)[O-])cc1)C(Cl)Cl [Chloramphenicol]	12.9	< 0	< 0	< 0	< 0	6.97	< 0	< 0
COCCCN1CCC(NC(=O)c2cc(Cl)c(N)c3c2OCC3)CC1 [Prucalopride]	< 0	< 0	< 0	< 0	< 0	< 0	31.8	< 0
Nc1nc(Nc2ccc(S(N)(=O)=O)cc2)nn1C(=O)c1c(F)cccc1F	< 0	< 0	< 0	< 0	< 0	4.14	< 0	< 0
CS(=O)(=O)N1CCc2c(-c3cnc(N)nc3)nc(N3CCOCC3)nc21	< 0	8.5	12.2	< 0	6.14	< 0	25.9	14.8
Cc1nc2c([nH]1)-c1ccccc1N(C(=O)c1ccc(NC(=O)c3ccccc3-c3ccccc3)cc1)CC2 [Conivaptan hydrochloride]	< 0	< 0	< 0	< 0	4.43	< 0	9.32	< 0
NC(N)=Nc1nc(CSCC/C(N)=N/S(N)(=O)=O)cs1 [Famotidine]	< 0	< 0	< 0	< 0	< 0	< 0	< 0	< 0
O=c1[nH]c(=O)n(C2CCCO2)cc1F (stereo not drawn) [Tegafur]	< 0	< 0	< 0	< 0	< 0	< 0	< 0	< 0
Nc1nc(F)nc2c1ncn2[C@@H]1O[C@H](CO)[C@@H](O)[C@H]1O [2-Fluoroadenosine]	22.6	68.5	69.4	65.9	20.9	34.2	72.7	81.9
N#CC[C@H](C1CCCC1)n1cc(-c2ncnc3[nH]ccc23)cn1	< 0	3.22	10.6	< 0	< 0	< 0	< 0	< 0
O=C(c1ccc(F)cc1)N1CCC[C@H](c2nc(-c3ccc(F)cc3)no2)C1	< 0	< 0	< 0	< 0	< 0	< 0	< 0	< 0
Clc1ccc(C(c2ccccc2Cl)C(Cl)Cl)cc1 (stereo not drawn) [Mitotane]	< 0	< 0	< 0	< 0	< 0	< 0	2.34	< 0
CCCNS(=O)(=O)Nc1ncnc(OCCOc2ncc(Br)cn2)c1-c1ccc(Br)cc1 [Macitentan]	< 0	< 0	< 0	< 0	< 0	3.59	< 0	< 0

Ordered by heavy-atom count (smallest number first): part of the list above
SMILES	reduction in cell viability (M229P) [%]	reduction in cell viability (M229R) [%]	reduction in cell viability (M238P) [%]	reduction in cell viability (M238R) [%]	reduction in cell viability (M249P) [%]	reduction in cell viability (M249R) [%]	reduction in cell viability (UACC62P) [%]	reduction in cell viability (UACC62R) [%]
O=C1CCC(N2C(=O)c3ccccc3C2=O)C(=O)N1 (stereo not drawn) [Thalidomide]	< 0	< 0	< 0	< 0	< 0	< 0	< 0	< 0
NC(N)=Nc1nc(CSCC/C(N)=N/S(N)(=O)=O)cs1 [Famotidine]	< 0	< 0	< 0	< 0	< 0	< 0	< 0	< 0
Nc1nc(Nc2ccc(S(N)(=O)=O)cc2)nn1C(=O)c1c(F)cccc1F	< 0	< 0	< 0	< 0	< 0	4.14	< 0	< 0
